Test results reported in PubChem BioAssay AID493014 (National Center for Advancing Translational Sciences (NCATS), 2011).
This is one part of the list. Shown are side measurements of this screen, not its main read-out; they come without a call. Compounds called inactive in the main read-out are mostly missing here. The note in brackets gives the kind of curve behind each potency; many fits are weak.

Assay: qHTS Assay to Find Inhibitors of Chronic Active B-Cell Receptor Signaling
Settings: ABC-DLBCL IkBa-CBG/CBR reporter, luminescence ratio (green luciferase fused to IkBa over red control in TMD8 lymphoma cells), 4 h
Outline: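 TMD8 human ABC-DLBCL cells with doxycycline-inducible IκBα–green luciferase fusion and unfused red luciferase, in 0.5% FBS medium; compounds up to 46 uM, 4 h at 37C. Green/red luminescence ratio, filter-overlap corrected, fitted to concentration-response curves.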

[1] = measured here: CBR red luminescence, cell number
[2] = measured here: IkBa-CBG green luminescence

Structure (SMILES)	AC50 [1]	AC50 [2]
N#Cc1c(NC(=O)c2cccnc2)sc2c1CCC2	32.6 µM [falling, single point]	
Cc1cc(-c2ccc(C)c(S(=O)(=O)NCCCN3CCN(c4ccccc4)CC3)c2)on1	22.4 µM [falling, single point]	
COCc1cc(=O)n2[nH]c(-c3ccc(C)cc3)cc2n1	5.8 µM [falling, partial curve]	
Cc1cccc(NC(=S)NCc2ccc3c(c2)cc(C)n3C)c1C		5.62 µM [falling, single point]
Cc1nnc(SCC(=O)NCc2ccccc2)[nH]c1=O	29.1 µM [rising, single point]	
COc1cccc(NC(=O)CNC(=O)c2cccs2)c1	16.4 µM [falling, single point]	
Cc1cccc(-c2cc(N)n(-c3ccccc3)n2)c1	15.8 µM [falling, partial curve, poor fit]	
COc1ccc(F)cc1S(=O)(=O)N1CCCC(C)C1 (centres undefined)	0.184 µM [falling, full curve]	
COCCOC(=O)C1=C(N)OC2=C(C(=O)CC(C)(C)C2)C1c1cccnc1 (centres undefined)	3.26 µM [rising, single point]	
CCOC(=O)C1=C(C)NC(=S)N(C(C)=O)C1c1ccccc1 (centres undefined)	20.6 µM [falling, single point]	20.6 µM [rising, partial curve, poor fit]
CC(=O)c1cccc(NC(=O)c2csc3c2CCCCC3)c1	17.8 µM [rising, partial curve, poor fit]	
CCOC(=O)Cc1c(C)nc2c(C#N)c(C)nn2c1C	29.1 µM [falling, single point]	
Cc1cccc(C(=O)Nc2ccc3c(c2)nc(C)n3C)c1	17.8 µM [falling, partial curve]	
CC(CC(=O)Nc1ccccc1C(F)(F)F)c1ccccc1 (centres undefined)	16.4 µM [rising, single point]	
COc1cccc(/C=N/Nc2nnc(C)n2N)c1OCc1ccccc1Cl	29.1 µM [falling, single point]	
CCCCN(Cc1ccco1)C(=O)C1CCCN(c2ncnc3c2nc2n3CCCCC2)C1 (centres undefined)	14.1 µM [falling, single point]	
CCc1c(C(=O)NNC(=S)Nc2ccc(S(=O)(=O)Nc3ncccn3)cc2)csc1C	12.6 µM [falling, partial curve]	
CCc1cc[n+](C2=C([O-])c3ccccc3C(=O)/C2=N\S(=O)(=O)c2cccs2)cc1	16.4 µM [falling, partial curve, poor fit]	
COc1cc2c(cc1OC)C(c1cccc(C)c1)CC(=O)N2 (centres undefined)	3.16 µM [rising, partial curve]	
Nc1nccnc1C(=O)OCC(=O)Nc1cccc(S(=O)(=O)N2CCCCC2)c1	16.4 µM [falling, single point]	
COc1ccccc1NC(=O)C(=O)N/N=C(\C)CC(=O)Nc1ccccc1C(F)(F)F	2.24 µM [falling, full curve]	
COc1ccc(C2=NS(=O)(=O)N(C)C(C(=O)Nc3ccc4c(c3)OCO4)=C2)cc1OC	11.2 µM [falling, partial curve, poor fit]	

Twelve entries from above, with bars between the fields.
Structure (SMILES) | AC50 [1] | AC50 [2]
N#Cc1c(NC(=O)c2cccnc2)sc2c1CCC2 | 32.6 µM [falling, single point] | 
Cc1cccc(-c2cc(N)n(-c3ccccc3)n2)c1 | 15.8 µM [falling, partial curve, poor fit] | 
COCCOC(=O)C1=C(N)OC2=C(C(=O)CC(C)(C)C2)C1c1cccnc1 (centres undefined) | 3.26 µM [rising, single point] | 
CCOC(=O)C1=C(C)NC(=S)N(C(C)=O)C1c1ccccc1 (centres undefined) | 20.6 µM [falling, single point] | 20.6 µM [rising, partial curve, poor fit]
CC(=O)c1cccc(NC(=O)c2csc3c2CCCCC3)c1 | 17.8 µM [rising, partial curve, poor fit] | 
CCOC(=O)Cc1c(C)nc2c(C#N)c(C)nn2c1C | 29.1 µM [falling, single point] | 
CC(CC(=O)Nc1ccccc1C(F)(F)F)c1ccccc1 (centres undefined) | 16.4 µM [rising, single point] | 
COc1cccc(/C=N/Nc2nnc(C)n2N)c1OCc1ccccc1Cl | 29.1 µM [falling, single point] | 
CCc1cc[n+](C2=C([O-])c3ccccc3C(=O)/C2=N\S(=O)(=O)c2cccs2)cc1 | 16.4 µM [falling, partial curve, poor fit] | 
COc1cc2c(cc1OC)C(c1cccc(C)c1)CC(=O)N2 (centres undefined) | 3.16 µM [rising, partial curve] | 
Nc1nccnc1C(=O)OCC(=O)Nc1cccc(S(=O)(=O)N2CCCCC2)c1 | 16.4 µM [falling, single point] | 
COc1ccc(C2=NS(=O)(=O)N(C)C(C(=O)Nc3ccc4c(c3)OCO4)=C2)cc1OC | 11.2 µM [falling, partial curve, poor fit] | 

Next part

Structure (SMILES)	AC50 [1]	AC50 [2]
O=C(NC(=S)NNC(=O)c1ccccc1O)c1ccccc1	10 µM [falling, partial curve]	
O=C1N(c2ccccc2)CCN1c1ccccc1	0.0891 µM [rising, full curve, poor fit]	
O=C(/C=C/c1ccccc1)NCCSCc1ccc(Cl)cc1	29.1 µM [rising, single point]	
Cc1cc(CNC(=O)c2ccc3c(c2)OCO3)c2ccccc2n1	35.5 µM [rising, single point]	25.1 µM [falling, single point]
CC(Sc1nnc(-c2cccs2)n1Cc1ccccc1)C(=O)NCc1ccc2c(c1)OCO2 (centres undefined)	0.517 µM [falling, full curve, poor fit]	
O=C(c1ccco1)N1CCN(CC2CC3C=CC2C3)CC1 (centres undefined)	20.6 µM [rising, single point]	
C/C(Cl)=C\Cn1c(O)c(N=O)c2ccccc21	1.78 µM [rising, full curve]	
CN(C)CCOC(=O)c1ccc2[nH]c3c(c2c1)CSCC3	6.31 µM [rising, single point]	
N#Cc1nc(COc2ccccc2F)oc1NCc1ccc(F)cc1	2.51 µM [rising, partial curve, poor fit]	
CN(C)CCCN(C(=O)c1sc2ccccc2c1Cl)c1nc2c(F)cccc2s1	4.61 µM [falling, single point]	
N#CC(C#N)=Cc1cc2ccccc2nc1N1CCCCC1	16.4 µM [falling, single point]	
Cc1ccccc1CCN1CCCC(CN(C)CC(C)(C)C)C1 (centres undefined)	10 µM [rising, partial curve]	
COc1ccc(C(=O)Oc2ccc(F)cc2C(=O)/C=C/c2ccc(OC)c(OC)c2)cc1	14.6 µM [rising, partial curve, poor fit]	
CC(=O)Nc1cccc(-c2nnc(-c3ccccc3)o2)c1	7.31 µM [falling, partial curve]	
Cc1cc(C)nc(Nc2n[nH]c(-c3ccc(N)cc3)n2)n1	10.3 µM [falling, partial curve, poor fit]	
CCn1c(SCC(=O)N2CCOCC2)nnc1C(C)NC(=O)c1ccccc1 (centres undefined)	0.708 µM [rising, partial curve, poor fit]	
CCn1c(C)c(C)c2cc(C(=O)NC3CCCCCC3)ccc21	0.316 µM [falling, full curve, poor fit]	
CCCC(=O)N1CC(=O)Nc2ccc(C)cc2C1c1ccccc1 (centres undefined)	2.24 µM [rising, full curve, poor fit]	
O=C(Nc1sc2c(c1C(=O)O)CCC2)c1ccccc1F	0.562 µM [falling, full curve]	
CCn1cc(C(=O)N2CCCC(CO)(Cc3ccccc3C)C2)cn1 (centres undefined)	0.562 µM [rising, full curve, poor fit]	
COC(=O)c1ccc(CNC(=O)CCc2c[nH]c3ccccc23)cc1	35.5 µM [falling, single point]	
CC(=O)c1c(C)[nH]c(C(=O)CSc2nc3ccccc3n2C)c1C	7.08 µM [falling, partial curve]	

Structure (SMILES)	AC50 [1]	AC50 [2]
N#CC1=C(N)NC(SCc2ccccc2)=C(C#N)C12CCCCC2	0.2 µM [falling, full curve, poor fit]	35.5 µM [falling, single point]
Cc1ccc(-c2nc3scc(CCNS(=O)(=O)c4c(C)noc4C)n3n2)cc1	35.5 µM [falling, single point]	15.8 µM [rising, partial curve, poor fit]
Cc1cc(C)c(C#N)c(SCc2c(F)cccc2[N+](=O)[O-])n1	5.17 µM [rising, full curve, poor fit]	10.3 µM [falling, partial curve, poor fit]
CC(CCc1ccco1)NC(=O)c1cc2c(-c3ccccc3F)nn(C)c2s1 (centres undefined)	7.31 µM [falling, partial curve, poor fit]	
CCC12CN(S(=O)(=O)c3ccc(C)cc3)CC(CC)(CN(S(=O)(=O)c3ccc(C)cc3)C1)C2=O	0.517 µM [falling, full curve, poor fit]	
CCOc1ccccc1N1CCN(S(=O)(=O)c2ccc3c4c(cccc24)C(=O)N3)CC1	23.1 µM [falling, single point]	
O=C(NCc1ccccc1)c1cnc(-c2ccccn2)nc1C(F)(F)F	29.1 µM [rising, single point]	
Cc1ccc(Nc2nc(-c3ccc(F)cc3)cs2)nc1	0.316 µM [falling, full curve, poor fit]	
CCCCN(C(=O)CSc1nnc(-c2ccccc2)o1)c1c(N)n(CCC)c(=O)[nH]c1=O	2.91 µM [rising, partial curve]	
O=c1[nH]cnc2c1C1(CCCC1)Cc1ccccc1-2	14.6 µM [falling, single point]	
O=C1COCCOCCOCCOCC(=O)NCCN1	14.1 µM [rising, single point]	
Cc1ccc(-c2n[nH]c3c2C(c2ccccc2)N(c2ccc(C(=O)O)cc2)C3=O)cc1 (centres undefined)	20 µM [falling, single point]	
CCOc1ccc2nc(N3CCC(C(=O)N4CCN(C5CCCCC5)CC4)CC3)sc2c1	23.1 µM [falling, partial curve, poor fit]	
COc1cccc(COC(=O)C2CCN(S(=O)(=O)c3cccs3)CC2)c1OC	11.6 µM [rising, partial curve, poor fit]	
O=C(NC(=S)NNC(=O)c1ccccc1O)c1cccc([N+](=O)[O-])c1	5.01 µM [falling, partial curve]	
NS(=O)(=O)c1ccc(NC(=O)CSc2nnc(COc3ccccc3Cl)n2C2CC2)cc1	29.1 µM [falling, single point]	
Cc1ccc(C(=O)OCC(=O)Nc2sc3c(c2C#N)CCCC3)cc1NC(=O)c1ccco1	2.91 µM [rising, single point]	
O=Cc1c(NCCN2CCCC2)c2ccccc2[nH]c1=O	12.6 µM [falling, single point]	
Cc1ccc2c(c1)N(CC(=O)O)C(=O)CO2	35.5 µM [rising, partial curve, poor fit]	
O=C(NCCSc1ccccc1)c1cncc(Br)c1	13 µM [falling, partial curve, poor fit]	
